Laboratory results published in the supplement of paper PMC10849652.
Some of the results follow.

The chains behind the UniProt entries cited, without tags or fusion partners. Where a name states a change or a piece, a line headed by the entry shows the natural chain unless it says otherwise.
UniProt Q9H2F5, whole entry, looked up: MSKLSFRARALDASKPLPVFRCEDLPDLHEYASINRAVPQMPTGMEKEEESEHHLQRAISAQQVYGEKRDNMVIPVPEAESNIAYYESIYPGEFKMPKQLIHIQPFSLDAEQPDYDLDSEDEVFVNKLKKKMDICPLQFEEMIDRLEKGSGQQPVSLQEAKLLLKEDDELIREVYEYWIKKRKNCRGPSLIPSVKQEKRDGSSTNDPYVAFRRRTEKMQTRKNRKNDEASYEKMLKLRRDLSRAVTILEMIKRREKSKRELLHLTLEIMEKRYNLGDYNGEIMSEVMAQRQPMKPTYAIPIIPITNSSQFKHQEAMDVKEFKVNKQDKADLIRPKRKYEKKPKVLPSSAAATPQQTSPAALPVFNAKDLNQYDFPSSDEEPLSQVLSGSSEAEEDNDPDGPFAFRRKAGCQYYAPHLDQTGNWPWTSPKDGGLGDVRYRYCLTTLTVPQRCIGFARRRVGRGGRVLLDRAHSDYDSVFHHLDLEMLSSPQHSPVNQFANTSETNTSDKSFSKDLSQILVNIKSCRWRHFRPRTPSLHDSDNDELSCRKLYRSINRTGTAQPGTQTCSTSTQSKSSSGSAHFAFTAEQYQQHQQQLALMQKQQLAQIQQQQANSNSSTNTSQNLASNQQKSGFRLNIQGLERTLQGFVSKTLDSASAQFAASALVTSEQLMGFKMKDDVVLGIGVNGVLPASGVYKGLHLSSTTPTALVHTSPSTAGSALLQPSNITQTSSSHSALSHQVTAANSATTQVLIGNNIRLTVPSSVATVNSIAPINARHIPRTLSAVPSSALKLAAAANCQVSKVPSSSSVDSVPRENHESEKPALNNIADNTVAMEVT
UniProt O75822, whole entry, looked up: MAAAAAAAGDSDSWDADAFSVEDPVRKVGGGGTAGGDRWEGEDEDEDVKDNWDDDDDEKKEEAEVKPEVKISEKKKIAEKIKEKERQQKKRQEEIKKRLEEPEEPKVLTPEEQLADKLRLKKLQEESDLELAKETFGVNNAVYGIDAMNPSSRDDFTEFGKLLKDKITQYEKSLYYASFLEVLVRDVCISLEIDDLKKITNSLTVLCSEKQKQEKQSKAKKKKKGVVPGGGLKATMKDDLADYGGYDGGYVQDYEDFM
UniProt Q96JJ3: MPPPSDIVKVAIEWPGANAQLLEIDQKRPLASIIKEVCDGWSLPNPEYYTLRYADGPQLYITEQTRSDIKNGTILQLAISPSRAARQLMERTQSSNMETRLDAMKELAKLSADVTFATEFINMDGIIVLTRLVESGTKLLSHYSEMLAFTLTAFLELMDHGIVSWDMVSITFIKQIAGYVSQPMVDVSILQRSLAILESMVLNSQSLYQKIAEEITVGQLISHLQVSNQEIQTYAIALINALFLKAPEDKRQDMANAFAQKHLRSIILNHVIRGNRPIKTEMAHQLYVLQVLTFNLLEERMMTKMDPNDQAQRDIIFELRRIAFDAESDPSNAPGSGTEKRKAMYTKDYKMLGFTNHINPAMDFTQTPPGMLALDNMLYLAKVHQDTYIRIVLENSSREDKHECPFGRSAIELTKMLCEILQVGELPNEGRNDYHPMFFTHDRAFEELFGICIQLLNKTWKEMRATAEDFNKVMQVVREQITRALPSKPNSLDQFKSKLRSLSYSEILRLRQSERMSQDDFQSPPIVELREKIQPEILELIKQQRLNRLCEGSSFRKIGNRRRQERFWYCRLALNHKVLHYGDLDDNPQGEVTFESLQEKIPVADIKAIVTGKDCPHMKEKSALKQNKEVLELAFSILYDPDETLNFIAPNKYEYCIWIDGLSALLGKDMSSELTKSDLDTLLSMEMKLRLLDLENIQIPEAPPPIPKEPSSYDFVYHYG
UniProt Q9H777: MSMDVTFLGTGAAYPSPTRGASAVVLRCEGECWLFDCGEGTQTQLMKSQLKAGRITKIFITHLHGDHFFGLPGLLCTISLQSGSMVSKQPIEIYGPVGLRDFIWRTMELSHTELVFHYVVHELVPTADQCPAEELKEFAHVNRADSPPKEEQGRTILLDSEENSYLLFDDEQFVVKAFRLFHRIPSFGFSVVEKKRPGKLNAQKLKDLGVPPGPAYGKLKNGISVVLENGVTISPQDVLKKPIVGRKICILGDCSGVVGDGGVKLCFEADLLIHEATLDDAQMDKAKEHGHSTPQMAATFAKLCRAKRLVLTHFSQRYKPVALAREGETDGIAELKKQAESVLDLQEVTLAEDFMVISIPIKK
UniProt Q8TE68: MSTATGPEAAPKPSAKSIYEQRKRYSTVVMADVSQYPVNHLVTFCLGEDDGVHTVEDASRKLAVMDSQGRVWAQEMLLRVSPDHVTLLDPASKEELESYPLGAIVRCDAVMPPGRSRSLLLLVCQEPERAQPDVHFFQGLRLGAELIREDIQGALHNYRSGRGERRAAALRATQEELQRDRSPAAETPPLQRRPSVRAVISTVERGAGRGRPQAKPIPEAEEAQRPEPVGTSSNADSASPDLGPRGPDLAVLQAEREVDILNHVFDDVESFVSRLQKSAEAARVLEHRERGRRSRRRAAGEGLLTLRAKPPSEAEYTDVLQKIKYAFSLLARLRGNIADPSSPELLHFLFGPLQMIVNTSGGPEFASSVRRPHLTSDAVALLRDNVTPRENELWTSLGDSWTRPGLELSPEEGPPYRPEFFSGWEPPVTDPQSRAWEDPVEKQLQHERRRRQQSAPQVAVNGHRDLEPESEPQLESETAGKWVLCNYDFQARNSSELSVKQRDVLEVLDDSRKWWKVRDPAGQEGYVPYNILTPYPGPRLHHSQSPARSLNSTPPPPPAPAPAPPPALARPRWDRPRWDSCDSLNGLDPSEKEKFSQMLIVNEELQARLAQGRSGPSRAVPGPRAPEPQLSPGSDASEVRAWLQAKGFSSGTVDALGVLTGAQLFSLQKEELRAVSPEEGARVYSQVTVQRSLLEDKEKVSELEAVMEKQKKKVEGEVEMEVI

How the values were obtained:
Assay in all cases: log2 fold change, soluble protein after heating vs DMSO (PISA); higher = thermal stabilisation; K562 lysate, 10 uM; active = over 0.2 and 3.5 SD of the protein, either way, in both replicates (recomputed)
lapatinib = compound: CS(=O)(=O)CCNCc1ccc(-c2ccc3ncnc(Nc4ccc(OCc5cccc(F)c5)c(Cl)c4)c3c2)o1 [lapatinib]
In short: (§1)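 A 30 min treatment with 10 μM compound was applied to crude K562 extract at 1 mg/mL protein in PBS pH 7.4 with 1 mM MgCl2. Heating for 3 min spanned 48°C-58°C, after which aliquots were pooled, adjusted to 0.5% NP-40 at 4°C and spun at 21,000xg for 90 min. TMTpro 16plex LC-MS/MS of the supernatant, with channel sums equalised, gave values recorded as log-two fold change in thermal stability against solvent controls, from duplicates.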

pictilisib = compound: CS(=O)(=O)N1CCN(Cc2cc3nc(-c4cccc5[nH]ncc45)nc(N4CCOCC4)c3s2)CC1 [pictilisib]
In short: as §1

[1] = compound: C[C@H](C1=CC=C(C=C1)C(=O)NC2=C3C=CNC3=NC=C2)N
In short: as §1

duvelisib = compound: C[C@H](Nc1ncnc2nc[nH]c12)c1cc2cccc(Cl)c2c(=O)n1-c1ccccc1 [duvelisib]
In short: as §1

gandotinib = compound: Cc1cc(Nc2cc(CN3CCOCC3)c3nc(C)c(Cc4ccc(Cl)cc4F)n3n2)n[nH]1 [gandotinib]
In short: as §1

bafetinib = compound: Cc1ccc(NC(=O)c2ccc(CN3CC[C@H](N(C)C)C3)c(C(F)(F)F)c2)cc1Nc1nccc(-c2cncnc2)n1 [bafetinib]
In short: as §1

[2] = compound: Cc1cccc(CC(=O)N2CCc3c2ccc(-c2cn(C)c4ncnc(N)c24)c3F)n1
In short: as §1

dasatinib = compound: Cc1nc(Nc2ncc(C(=O)Nc3c(C)cccc3Cl)s2)cc(N2CCN(CCO)CC2)n1 [dasatinib]
In short: as §1

[3] = compound: Cn1cc(-c2ccc3c(c2)CCN3C(=O)Cc2cccc(C(F)(F)F)c2)c2c(N)ncnc21
In short: as §1

[4] = compound: NC(=O)c1cnc(N[C@@H]2CCCC[C@@H]2N)nc1Nc1cccc(-n2nccn2)c1
In short: as §1

nilotinib = compound: Cc1cn(-c2cc(NC(=O)c3ccc(C)c(Nc4nccc(-c5cccnc5)n4)c3)cc(C(F)(F)F)c2)cn1 [nilotinib]
In short: as §1

[5] = compound: Cc1nc(Nc2n[nH]c3c2CN(C(=O)N[C@H](CN(C)C)c2ccccc2)C3(C)C)c2sccc2n1
In short: as §1

[6] = compound: Cc1ncc(-c2ccnc(Nc3ccc(S(C)(=O)=O)cc3)n2)n1C(C)C
In short: as §1

tipifarnib = compound: Cn1cncc1[C@@](N)(c1ccc(Cl)cc1)c1ccc2c(c1)c(-c1cccc(Cl)c1)cc(=O)n2C [tipifarnib]
In short: as §1

crizotinib = compound: C[C@@H](Oc1cc(-c2cnn(C3CCNCC3)c2)cnc1N)c1c(Cl)ccc(F)c1Cl [crizotinib]
In short: as §1

doramapimod = compound: Cc1ccc(-n2nc(C(C)(C)C)cc2NC(=O)Nc2ccc(OCCN3CCOCC3)c3ccccc23)cc1 [doramapimod]
In short: as §1

quisinostat = compound: Cn1cc(CNCC2CCN(c3ncc(C(=O)NO)cn3)CC2)c2ccccc21 [quisinostat]
In short: as §1

[7] = compound: NC(=O)Nc1cc(-c2cccc(F)c2)sc1C(=O)N[C@H]1CCCNC1
In short: as §1

tozasertib = compound: Cc1cc(Nc2cc(N3CCN(C)CC3)nc(Sc3ccc(NC(=O)C4CC4)cc3)n2)n[nH]1 [tozasertib]
In short: as §1

[8] = compound: NC1(c2ccc(-c3nc4ccn5c(=O)[nH]nc5c4cc3-c3ccccc3)cc2)CCC1
In short: as §1

Measured: log2 fold change

EIF3G (UniProt K7ENA8)
inactive: lapatinib -0.141 | pictilisib -0.001 | [1] -0.009 | duvelisib -0.016 | gandotinib -0.153 | bafetinib 0.008 | [2] 0.087 | dasatinib 0.017 | [3] -0.042 | [4] -0.34

EIF2B5, A0A3B3ITK8
inactive: lapatinib -0.108 | nilotinib -0.455 | [5] 0.16 | [6] -0.134 | tipifarnib 0.313 | [4] -0.054

EPC1 (UniProt Q9H2F5)
inactive: pictilisib 0.144 | crizotinib -0.076 | [1] 0.235 | gandotinib -0.054 | doramapimod -0.448 | bafetinib -0.317 | [2] -0.03 | quisinostat -0.332 | [7] 0.172

EIF3J isoform 2 (UniProt O75822)
inactive: lapatinib 0.033 | [1] 0.245 | gandotinib -0.112 | tozasertib 0.062 | [2] -0.257 | [4] -0.034

ELMO2 (UniProt Q96JJ3)
inactive: lapatinib 0.008 | crizotinib -0.197 | [1] -0.034 | duvelisib -0.05 | gandotinib 0.007 | doramapimod -0.072 | [2] 0.214 | nilotinib 0.099 | [5] -0.035 | dasatinib 0.025 | [6] -0.116 | [3] -0.078 | quisinostat -0.425 | tipifarnib -0.077 | [7] 0.145 | [4] 0.05 | [8] 0.039

EPN2 (UniProt I3L356)
inactive: lapatinib 0.014 | pictilisib -0.054 | [1] -0.361 | gandotinib 0.081 | bafetinib 0.031 | [2] 0.146 | nilotinib -0.248 | [5] 0.062 | [6] -0.291 | tipifarnib 0.238 | [4] 0.021

ELAC1 (UniProt Q9H777)
inactive: lapatinib 0.084 | pictilisib -0.223 | [1] -0.104 | gandotinib 0.003 | tozasertib 0.218 | bafetinib 0.014 | [2] 0.064 | [4] -0.012

Pulled one by one from above, two records:
EIF2B5, A0A3B3ITK8
inactive: lapatinib -0.108 | nilotinib -0.455 | [5] 0.16 | [6] -0.134 | tipifarnib 0.313 | [4] -0.054

EPC1 (UniProt Q9H2F5)
inactive: pictilisib 0.144 | crizotinib -0.076 | [1] 0.235 | gandotinib -0.054 | doramapimod -0.448 | bafetinib -0.317 | [2] -0.03 | quisinostat -0.332 | [7] 0.172

Following part:

EPS8L1 (UniProt Q8TE68)
inactive: pictilisib -0.119 | crizotinib -0.04 | [1] -0.001 | duvelisib 0.076 | gandotinib 0.041 | tozasertib 0.133 | doramapimod 0.22 | bafetinib -0.006 | [2] 0.162 | dasatinib 0.038 | [3] -0.058 | quisinostat -0.065 | [7] 0.046
